Assay results reported in US20240374532A1.
Results are given in words; binding and its absence hold for the method and conditions named. Some entries that bind do so weakly or less than the wild type.

Protein sequences, listed by entry. Tags and fused reporters are not part of them. Residues count along the entry.
UniProt P10415, residues 1-218: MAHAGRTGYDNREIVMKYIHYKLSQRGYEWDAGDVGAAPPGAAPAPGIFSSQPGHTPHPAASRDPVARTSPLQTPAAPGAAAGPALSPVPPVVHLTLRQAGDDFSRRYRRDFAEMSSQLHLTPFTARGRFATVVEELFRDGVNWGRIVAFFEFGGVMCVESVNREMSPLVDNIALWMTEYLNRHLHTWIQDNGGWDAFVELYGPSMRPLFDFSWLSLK

Columns and labels:
[1] = target: GST-Bcl-2 (human) (UniProt P10415); assay: SPR, 800 nM GST-Bcl-2 over immobilized activator peptide
[2] = target: GST-Bcl-2 (human) (UniProt P10415); assay: SPR, GST-Bcl-2 over immobilized activator peptide

binding [1]: binds
binding [2]: binds
Binder: DMNLLDIFIEMEKRVILGEGKLDILKRVCAQ [Casp8p41 activator peptide]
